Results taken from PubChem BioAssay AID1347426 (Functional Genomics Laboratory (NCATS/FGL), 2020).
Screen size: about 31,000 sequences; about 1,400 (4.5%) were called active.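 The calls were made as follows: active = median seed-adjusted z-score above 1 or below -1; inactive = the rest.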 This is one part of the list.

Test: Novel Modifiers of Survival Motor Neuron (SMN) Protein: Gene Identification via Genome-wide siRNA Screen;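 also: luminescence tracks full-length SMN protein made from the SMN2 reporter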
Conditions: HEK293T SMN2-luciferase reporter, siRNA knockdown, 72 h; actives lie on both sides
Outline: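 HEK293T cells stably expressing an SMN2 splicing/cDNA-luciferase reporter were reverse-transfected with a druggable-genome siRNA library and read by luminescence at 72 hours; hits defined by MAD score above 1.0 or below -1.0.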

Row | Sequence | median seed-adjusted z-score
1 | CGAAGCACGUCAAGACUCATT against SP5 | inactive: 0.105
2 | GGCUGCAUUUGGUCUCGAATT against RGL1 | inactive: 0.0217
3 | CAGACUCACUUGUCACUCATT against SCMH1 | inactive: -0.305
4 | GCACUCCAGAGACGACUAATT against LMBR1 | inactive: 0.236
5 | CGAGAGCUCCAGAUCAUGATT against GSK3B | inactive: -0.952
6 | CCGUAGCUUUGAUGACGAATT against AKAP8 | inactive: -0.252
7 | CCACCCUUCGAGAUCUUCUTT against IRF5 | inactive: -0.146
8 | GCAUCAUCGCGUCAUAGCATT against SMPDL3B | inactive: 0.0704
9 | GAACUAUGAAUAAAGCUUUTT against HAGHL | inactive: -0.334
10 | ACAUCGUCGCGUCUGCUCATT against TMEM147 | inactive: 0.233
11 | GUACCACUCUAGCCCAAUATT against BMX | inactive: -0.00712
12 | CGACUUGCGAAAAAGGCUATT against MAGI2 | inactive: -0.23
13 | CUGCUAGUCUGGUUCACGATT against PDSS1 | inactive: -0.287
14 | CAAAGGUUGUCUGACACUATT against OBFC2B | inactive: -0.061
15 | GGAGUGCACGAGACAUUCATT against FAH | inactive: -0.0836
16 | CAAAGAAAAUGUAACCAUUTT against LY9 | inactive: 0.228
17 | AGGAGAAUAUUAUAUGACATT against EFHA1 | inactive: 0.0629
18 | GAGAAUGAGUUGCUGCAGATT against CORO2A | inactive: 0
19 | CAGUUGCCCUUGUUCGGAATT against TSSK6 | inactive: -0.408
20 | GCAUUGUAUCUCUUAUGUATT against FZD6 | inactive: 0.312
21 | GGUUACAAGCGGUUUGGUATT against COLEC12 | active: -1.04
22 | GCCUGGAUUUCUUAGAUUATT against ORC5L | inactive: -0.126
23 | GCAAUAUCAUUUCCUCCAATT against BRUNOL5 | inactive: 0.333

Row | Sequence | median seed-adjusted z-score
24 | UCAAGUACGUGCUAAUGAATT against CALML6 | inactive: 0.0119
25 | GCACAAGAGUGAAGACCAUTT against CCR9 | inactive: 0.16
26 | GCCCUCGCGUCUUCAGAAATT against NOP56 | inactive: 0.307
27 | CUACUUAGUUGAUUCGGGATT against MCCC2 | inactive: -0.0566
28 | GAAGUUUACUCAACUGAGATT against RUVBL1 | inactive: -0.834
29 | GCUCCAUCAUCGUUGCAUUTT against SYPL2 | inactive: 0.233
30 | CACUGCUGAUGACCCGUUATT against ADCY4 | inactive: -0.0551
31 | CAAGAUUCUUGAUACUGCATT against HMBS | inactive: 0.422
32 | CAAUGAAAGUCCCAAAUGUTT against DHX33 | inactive: -0.689
33 | CCCUCUUCGACUUCAAACATT against MBD1 | inactive: 0
34 | GGAGAACUCUUUGCACCUATT against FHL3 | inactive: 0.105
35 | GGCUACGAGCAAUACUAUATT against OSBPL3 | inactive: 0.0159
36 | GUAUAUCGGUGAACUGCUUTT against SLC27A2 | inactive: -0.647
37 | CAUCGUCAUCAGAAACUGATT against MKX | inactive: 0.00623
38 | CAACUUGAGCGAAAAUUCUTT against RSU1 | inactive: 0.176
39 | GGAAACGAUUAUUACAACUTT against LRRK2 | inactive: -0.671
40 | CACUCCCUUAGGUCCCUUATT against ARID3B | inactive: -0.0846
41 | GCCUCAAGGUUCACCUGAATT against PRDM1 | inactive: -0.16
42 | AGACCUUCAUCGUACUCAATT against SCN4A | inactive: -0.681
43 | CAAUCCUCUCCAAACAUAATT against ZNF253 | inactive: 0.0237
44 | GGACUUUGGUUAUGUUGGATT against SNAP25 | inactive: 0
45 | CUGUAGUUGUGGUAGCGAUTT against GBP5 | inactive: -0.194
46 | CGAUUCUGGUUAUUGCAAATT against DHX38 | inactive: -0.723

Row | Sequence | median seed-adjusted z-score
47 | GCCUAUAAGGACAAGAUAATT against CD200 | inactive: -0.0135
48 | GAAAUUGACUCGUUUCUUATT against PLCXD2 | inactive: -0.0211
49 | GCUUUGACUUUCGAACAGATT against SRBD1 | inactive: 0.169
50 | CAAAAGUACUUGCAAAGAUTT against POLL | inactive: -0.334
51 | GGUGACCAUUCGUUUAUUATT against SC4MOL | inactive: -0.0194
52 | GCUCUGACCUUAUUAAGCATT against ZNF75A | inactive: 0.303
53 | CGAAUAUGAUGAAGAUGUUTT against PHF17 | active: 1.01
54 | GGUCUUUGAUGCGAAGUUATT against DOCK2 | inactive: 0.151
55 | CGGACGACAUUACCAUCGATT against NRXN2 | inactive: -0.485
56 | GCACCAGGAUAUGUCUUAATT against YY1AP1 | inactive: 0.0453
57 | GCAUCCAAGUGAUUGAUCUTT against RSHL3 | inactive: -0.407
58 | CCACGGAUGGUGACAGUUATT against SLC6A11 | inactive: -0.0369
59 | GCAUGUUAUCGAAGGGUUUTT against PHC2 | inactive: 0.177
60 | CAAUGAAUUUUUCCGAAGATT against ITGA10 | inactive: 0.378
61 | AGCGCGUCAUGAUGACCUATT against PER1 | inactive: 0.176
62 | CGUCUGGACCGAAUCGGAATT against AVPR1A | inactive: 0
63 | GUGUCGGUGUUCACGCUCATT against PRLHR | inactive: 0
64 | ACACUGAUGGUGCAGUUAATT against S100A8 | inactive: -0.337
65 | CGGUGAAAGGGAUUUAUAATT against CASP9 | inactive: -0.0982
66 | GAGAUGUUGUGGUCGAUUUTT against ALPK1 | inactive: -0.0149
67 | CGACAUUACAAGGCGUGAATT against RAB2B | inactive: 0.882
68 | CAGAGUUACUUGGUAUAUUTT against XIRP2 | inactive: -0.404

A different layout for some results above:
Row,Sequence,median seed-adjusted z-score
47,GCCUAUAAGGACAAGAUAATT against CD200,inactive: -0.0135
48,GAAAUUGACUCGUUUCUUATT against PLCXD2,inactive: -0.0211
49,GCUUUGACUUUCGAACAGATT against SRBD1,inactive: 0.169
